Source: PubChem BioAssay AID1439 (NMMLSC, 2008)
Several values for one entry are separate records, joined by “and”; a condition that tells them apart may be missing. Equal entries are not always repeated. The campaign covered roughly 220,000 compounds. About 770 (0.35%) were called active. Inconclusive means that the source gave no clear call. Such entries were picked first, then a sample of the others. No stated cut-off is given here; in the data, active means binding response below about 49% or above about 150%; inconclusive means no clear call, values can overlap the other calls; inactive means in between.

By UniProt entry, the sequences of proteins in these tests, tags left out.
UniProt P09471, whole entry, looked up: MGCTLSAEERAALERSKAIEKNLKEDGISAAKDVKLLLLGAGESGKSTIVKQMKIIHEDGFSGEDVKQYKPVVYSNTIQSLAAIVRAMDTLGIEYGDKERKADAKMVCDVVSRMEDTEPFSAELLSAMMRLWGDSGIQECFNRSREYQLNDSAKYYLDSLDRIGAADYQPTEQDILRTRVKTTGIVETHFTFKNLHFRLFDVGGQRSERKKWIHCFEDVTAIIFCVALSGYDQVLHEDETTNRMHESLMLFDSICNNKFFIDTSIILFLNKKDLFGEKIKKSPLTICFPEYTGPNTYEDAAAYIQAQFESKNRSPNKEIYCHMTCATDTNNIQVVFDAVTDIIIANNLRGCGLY

molecular target: Guanine nucleotide-binding protein G(o) subunit alpha (Homo sapiens) (UniProt P09471); assay: RGS7-Galphao binding modulators, primary screen, biochemical, multiplexed bead flow cytometry (AID 1439); conditions: at 10 µM, actives lie on both sides;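 further: fluorescent Galphao held in activated GDP-AlF4 state binding bead-coupled RGS7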

SMILES | binding response (% of control)
COC(=O)c1cc(-c2ccc(OC)cc2)n[nH]1 | inconclusive: 101%
CCCSc1nc(C)cc(C)c1C(N)=O | inactive: 98.6%
CN1CCN(S(=O)(=O)c2ccc(N3CCN(S(=O)(=O)c4cccs4)CC3)nc2)CC1 | inactive: 95.4%
CC(=O)NCCc1c[nH]c2ccc(OCC(O)CNC(C)(C)C)cc12 (stereo not given) | inconclusive: 464%
COc1ccc(NC(=O)CS(=O)CC(=O)NCC2OCCc3ccccc32)cc1 (stereo not given) | inactive: 88%
S=C(Nc1ccccc1)N1CCCN1c1ccccc1 | inconclusive: 29.5%
CC1(C)CCCC(C)(C)N1CC(O)COCCOc1ccc(Br)cc1 (stereo not given) | inactive: 100%
CC(C)(C)c1ccc(C(=O)NNc2ncccc2-n2cccc2)cc1 | inconclusive: 120%
CCCCCCn1c(=O)[nH]c2c(c1=O)CCC2 | inconclusive: 96.7%
O=C(Cn1c[n+](CC(=O)c2ccc([N+](=O)[O-])cc2)cn1)c1ccc([N+](=O)[O-])cc1 | inconclusive: 95.8% and inconclusive: 90.4%
N#CCC(=O)N/N=C/c1cn(Cc2ccc(Cl)c(Cl)c2)c2ccccc12 | inconclusive: -29.6%
COc1ccc(OCC(=O)N/N=C(\C)c2cccs2)cc1 | inconclusive: 112%
O=C(Nc1ccc(-c2nc3cccnc3s2)cc1)c1cccnc1Cl | inconclusive: 75%
CCOC(=O)N1CCN(C(=O)CSc2nc(CC)nc3c2c(=O)n(C)c(=O)n3C)CC1 | inconclusive: 212%
NNC(=O)c1cccc(S(=O)(=O)Nc2cccc(C(F)(F)F)c2)c1 | inconclusive: 95.5%
O=C(N/N=C/c1ccc(Br)s1)c1c[nH]c2ccccc12 | inactive: 99.8%
Cc1ccc(NC(=O)CSc2nc(N)cc(N)n2)cc1S(=O)(=O)N1CCOCC1 | inconclusive: 103%
Cn1c(=O)c(C#N)c(-c2ccc(F)cc2)c2cc(C(=O)c3cc(Cl)cc(Cl)c3O)cnc21 | inconclusive: 91.5%
O=C(COC(=O)c1sc2ccccc2c1Cl)NCC1CCCCC1 | inactive: 104%
CN1CCCC(OC(=O)c2cccc(S(=O)(=O)N3CCCCCC3)c2)C1 (stereo not given) | inconclusive: 622%
C=CCSc1nnc(-c2cc(C(C)(C)C)nn2Cc2ccc(F)cc2)n1C | inconclusive: 185%
O=C(/C=C/c1ccc(F)cc1)NC(=S)NC1CCCCC1 | inconclusive: 93.1%
COC(=O)c1c(NS(=O)(=O)c2ccccc2)csc1C | inconclusive: 80.5%

SMILES | binding response (% of control)
CC(C)c1nnc(NC(=O)CSc2nnc(-c3ccco3)o2)s1 | inactive: 104%
Cc1nc(-c2cc(-c3nc(-c4ccc(C(F)(F)F)cc4)no3)no2)cs1 | inconclusive: 96.2%
CCCNC(=O)c1c(CSc2ccccc2)noc1C(=O)NCc1ccccc1 | inconclusive: 86%
COc1ccccc1-c1nnc(SCC(=O)Nc2ccc(S(N)(=O)=O)cc2)n1N | inconclusive: 78.2%
Nc1cc(Cl)ccc1C(=O)OCC(=O)N1CCOCC1 | inconclusive: 90.8%
C/C(CC(=O)c1ccccc1)=N\NC(=O)CC#N | inconclusive: 102%
Cc1ccc(S(=O)(=O)N/N=C/c2c(C)nn(-c3ccccc3)c2C)cc1 | inactive: 99.9%
COc1ccccc1C(=O)N/N=C1/NC(=O)CC(C(=O)Nc2ccccc2)S1 (stereo not given) | inconclusive: 112%
CC(=O)c1ccc(OC(=O)CCc2nc3ccccc3s2)cc1 | inconclusive: 88.5%
COC(=O)C1=C(C)NC(=S)NC1c1ccc(-c2cc(Cl)ccc2Cl)o1 (stereo not given) | inconclusive: 95.9%
O=S(=O)(Nc1ccc(-c2cn3ccccc3n2)cc1)c1ccccc1 | inconclusive: 112%
CCOC(=O)NC(=O)CSc1nc2ccccc2[nH]1 | inconclusive: 89%
CCCCCC(=O)NNC1CC(=O)N(c2ccccc2)C1=O (stereo not given) | inconclusive: 110%
Cc1ccccc1-n1nnnc1SCc1csc(-c2ccccc2)n1 | inactive: 96.3%
C/C(=N\NC(=O)CSc1nc(C)cc(C)n1)c1ccc([N+](=O)[O-])cc1 | inconclusive: 101%
O=C1CC2(CCCC2)C(=O)N1c1ccc(S(=O)(=O)NCC2CC2)cc1Cl | inconclusive: 104%
CC(C)(C)c1ccc(/C=C2\Oc3c(ccc(O)c3CN3CCN(CCO)CC3)C2=O)cc1 | inconclusive: 99.8%
Cc1ccc(NC(=O)CC2NCCN(Cc3ccccc3)C2=O)cc1 (stereo not given) | inconclusive: 136%
NC(=S)N/N=C/c1ccc(-c2ccc(SC(F)F)cc2)o1 | inconclusive: 87.2%
O=C(O)/C=C/c1cn(-c2ncc(C(F)(F)F)cc2Cl)c2ccccc12 | inactive: 102%
O=C(O)C1CCN(C(=O)COc2ccc(Br)cc2)CC1 | inconclusive: 108%
Cc1cc(C(=O)CSc2nc3ccccc3c(=O)n2C)c(C)n1Cc1ccc2c(c1)OCO2 | inactive: 121%
COc1ccc(CNC(=O)COC(=O)c2ccccc2OCC(=O)Nc2ccc(SC(F)F)cc2)cc1 | inconclusive: 91.8%

Reformatted in CSV form: entries from further up.
SMILES,binding response (% of control)
Nc1cc(Cl)ccc1C(=O)OCC(=O)N1CCOCC1,inconclusive: 90.8%
C/C(CC(=O)c1ccccc1)=N\NC(=O)CC#N,inconclusive: 102%
Cc1ccc(S(=O)(=O)N/N=C/c2c(C)nn(-c3ccccc3)c2C)cc1,inactive: 99.9%
COc1ccccc1C(=O)N/N=C1/NC(=O)CC(C(=O)Nc2ccccc2)S1 (stereo not given),inconclusive: 112%
CC(=O)c1ccc(OC(=O)CCc2nc3ccccc3s2)cc1,inconclusive: 88.5%
COC(=O)C1=C(C)NC(=S)NC1c1ccc(-c2cc(Cl)ccc2Cl)o1 (stereo not given),inconclusive: 95.9%
O=S(=O)(Nc1ccc(-c2cn3ccccc3n2)cc1)c1ccccc1,inconclusive: 112%
CCOC(=O)NC(=O)CSc1nc2ccccc2[nH]1,inconclusive: 89%
CCCCCC(=O)NNC1CC(=O)N(c2ccccc2)C1=O (stereo not given),inconclusive: 110%
Cc1ccccc1-n1nnnc1SCc1csc(-c2ccccc2)n1,inactive: 96.3%
C/C(=N\NC(=O)CSc1nc(C)cc(C)n1)c1ccc([N+](=O)[O-])cc1,inconclusive: 101%
O=C1CC2(CCCC2)C(=O)N1c1ccc(S(=O)(=O)NCC2CC2)cc1Cl,inconclusive: 104%
CC(C)(C)c1ccc(/C=C2\Oc3c(ccc(O)c3CN3CCN(CCO)CC3)C2=O)cc1,inconclusive: 99.8%
Cc1ccc(NC(=O)CC2NCCN(Cc3ccccc3)C2=O)cc1 (stereo not given),inconclusive: 136%
NC(=S)N/N=C/c1ccc(-c2ccc(SC(F)F)cc2)o1,inconclusive: 87.2%
O=C(O)/C=C/c1cn(-c2ncc(C(F)(F)F)cc2Cl)c2ccccc12,inactive: 102%
O=C(O)C1CCN(C(=O)COc2ccc(Br)cc2)CC1,inconclusive: 108%
Cc1cc(C(=O)CSc2nc3ccccc3c(=O)n2C)c(C)n1Cc1ccc2c(c1)OCO2,inactive: 121%
COc1ccc(CNC(=O)COC(=O)c2ccccc2OCC(=O)Nc2ccc(SC(F)F)cc2)cc1,inconclusive: 91.8%

Further results follow:

SMILES | binding response (% of control)
COc1ncccc1C(=O)N1CCCC(C(=O)c2cccc(OC(C)C)c2)C1 (stereo not given) | inconclusive: 113%
CC(c1ccccc1F)n1cc(C(=O)NCCCc2nc3ccccc3[nH]2)nn1 (stereo not given) | inactive: 101%
COc1ccc(C(=O)CCC(=O)Nc2cccc(Cl)c2)cc1 | inactive: 94.6%
CCN(c1ccccc1)S(=O)(=O)c1ccc(Cl)c(NC(=O)COC(=O)c2ccc[n+]([O-])c2)c1 | inconclusive: 63.8%
O=C(CSc1nnc(CNC(=O)C23CC4CC(CC(C4)C2)C3)n1-c1ccccc1)Nc1ccccc1 | inactive: 96.3%
O=C(Cn1nc(-c2ccccc2)ccc1=O)Nc1cccc(NC(=O)c2ccccn2)c1 | inactive: 98.3%
Cc1cc(C)n2nc(C(=O)NNC(=O)c3ccccc3)nc2n1 | inactive: 96.5%
O=C(CNCCCO)Nc1cc(C(F)(F)F)cc(NC(=O)CNCCCO)c1Cl | inactive: 100%
O=C(CCN1CCN(C/C=C/c2ccccc2)CC1)Nc1ccccc1F | inactive: 106%
Cc1cccc(N2CC(c3nc4ccccc4[nH]3)CC2=O)c1 (stereo not given) | inconclusive: 132%
Cc1ccc(S(=O)(=O)NNC(=O)c2cnn(-c3ccc(Cl)cc3)c2C(F)(F)F)cc1 | inconclusive: 106%
O=C(c1ccc(F)cc1)C1CCN(CCn2c(=O)[nH]c3ccccc3c2=O)CC1 | inconclusive: 86.4%
COc1ccc(CNC(=O)C(=O)NCc2ccncc2)cc1 | inconclusive: 101%
COc1ccc(CSc2nc(C)[nH]c2[N+](=O)[O-])cc1[N+](=O)[O-] | inconclusive: 110%
Cc1ccc(OCc2nnc(SCC(=O)Nc3ncc(C)s3)o2)cc1 | inconclusive: 99.5%
CN(Cc1ccc(Cl)s1)C(=O)CCl | inconclusive: 86.1%
O=P(O)(O)c1cc(-c2ccccc2)oc1-c1ccccc1 | inconclusive: 102%
CCc1cccc(NC(=S)N(CCOC)C(C)c2ccco2)c1 (stereo not given) | inconclusive: 104%
Cc1ccc(Cl)cc1NC(=O)CCCN1C(=O)c2cccnc2C1=O | inconclusive: 84.7%
O=S(=O)(NCc1cccnc1)c1cc(Cl)ccc1Cl | inactive: 92.1%
O=C(O)c1cccc(-n2c(O)c(C=C3N=c4ccccc4=N3)sc2=S)c1 | inconclusive: 51.4%
O=C(CCn1c(=O)sc2ccccc21)NCc1ccco1 | inactive: 120%
Cc1c(Br)c(=O)oc2c(Br)c(O)c(O)cc12 | inactive: 53.2%

SMILES | binding response (% of control)
O=C1CCCN1CN(C(=O)c1ccccc1)c1ccccc1 | inconclusive: 102%
Cc1nc(NCc2ccccc2)c2cc[nH]c2n1 | inconclusive: 107%
Cc1ccccc1NC(=O)Nc1cc(-c2ccccc2)nn1C | inconclusive: 30.7%
CC(C)C(OC(=O)c1cc2sccc2n1C)C(=O)NCC1CCCO1 (stereo not given) | inactive: 115%
CN(C(=O)c1ccc2c(=O)n3c(nc2c1)CCCCC3)c1ccccc1Cl | inconclusive: 102%
COc1cccc(NC(C)(C)c2nnnn2-c2c(C)cccc2C)c1 | inconclusive: -158%
Cc1ccc(CC(=O)N/N=C/c2ccc3c(c2)OCO3)cc1 | inconclusive: 107%
C[C@H]1[C@H](C)CC[C@]2(C(=O)O)CC[C@]3(C)C(=CC[C@@H]4[C@@]5(C)CC[C@H](O)C(C)(C)[C@@H]5CC[C@]43C)[C@H]12 | inconclusive: 76.2%
O=C(CSc1cccc2cccnc12)N/N=C/c1ccc(F)cc1 | inconclusive: 105%
CC(C)S(=O)(=O)c1ccc(C(=O)Nc2ccc(F)cc2F)cn1 | inconclusive: 95.2%
CSc1ncccc1C(=O)OCc1ccc(Br)cc1 | inconclusive: 102%
COc1ccc(N(C=O)C(=S)SC)cc1 | inconclusive: 107%
Cc1ccnc(SCc2cc(=O)c(OC(=O)c3ccc(Cl)c([N+](=O)[O-])c3)co2)n1 | inactive: 98.8%
CC(C)C(NC(=O)OCc1ccccc1)C(=O)OCC(=O)NC1CC1 (stereo not given) | inconclusive: 105%
COc1ccc(NC(=O)C2=C(C)C(=O)OC23CCC(C)CC3)c(OC)c1 (stereo not given) | inactive: 103%
CCOc1ccc(/C=N/n2nnnc2N)cc1O | inconclusive: 111%
COc1ccc2c(n1)Sc1nc3ccccc3nc1N2 | inconclusive: 175%
C=C1C(=O)O[C@@H]2[C@H]1[C@@H](OC(=O)/C(C)=C/C)C/C(C)=C\C(=O)/C=C(\C)[C@@H]2O | inconclusive: 122%
COc1cc(C(=O)NNC(=O)c2cc(C)[nH]n2)cc(OC)c1OC | inconclusive: 117%
CCOC(=O)C1=NNC2(CC(=O)N(c3cccc(C)c3)C2=O)C1 (stereo not given) | inconclusive: 118%
Cn1c(=O)c2c(nc(Br)n2C/C=N/NC(N)=S)n(C)c1=O | inconclusive: 115%
